The record followed here is publication PMC12001115, “Double prenylation of budding yeast Ykt6 regulates cell wall integrity and autophagy” (The Journal of Biological Chemistry, 2025).

The chains behind the UniProt entries cited, without tags or fusion partners.
UniProt P01123: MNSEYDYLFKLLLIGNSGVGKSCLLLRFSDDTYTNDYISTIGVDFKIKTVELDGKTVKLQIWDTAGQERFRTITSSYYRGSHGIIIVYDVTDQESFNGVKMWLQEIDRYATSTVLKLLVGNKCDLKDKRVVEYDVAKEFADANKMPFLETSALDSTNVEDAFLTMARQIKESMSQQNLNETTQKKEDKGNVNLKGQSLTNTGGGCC

B1: Cdc43 (protein, UniProt P18898 1-376)
chain: MCQATNGPSRVVTKKHRKFFERHLQLLPSSHQGHDVNRMAIIFYSISGLSIFDVNVSAKYGDHLGWMRKHYIKTVLDDTENTVISGFVGSLVMNIPHATTINLPNTLFALLSMIMLRDYEYFETILDKRSLARFVSKCQRPDRGSFVSCLDYKTNCGSSVDSDDLRFCYIAVAILYICGCRSKEDFDEYIDTEKLLGYIMSQQCYNGAFGAHNEPHSGYTSCALSTLALLSSLEKLSDKFKEDTITWLLHRQVSSHGCMKFESELNASYDQSDDGGFQGRENKFADTCYAFWCLNSLHLLTKDWKMLCQTELVTNYLLDRTQKTLTGGFSKNDEEDADLYHSCLGSAALALIEGKFNGELCIPQEIFNDFSKRCCF
B2: Ram1 (protein, UniProt P22007 1-431)
chain: MRQRVGRSIARAKFINTALLGRKRPVMERVVDIAHVDSSKAIQPLMKELETDTTEARYKVLQSVLEIYDDEKNIEPALTKEFHKMYLDVAFEISLPPQMTALDASQPWMLYWIANSLKVMDRDWLSDDTKRKIVDKLFTISPSGGPFGGGPGQLSHLASTYAAINALSLCDNIDGCWDRIDRKGIYQWLISLKEPNGGFKTCLEVGEVDTRGIYCALSIATLLNILTEELTEGVLNYLKNCQNYEGGFGSCPHVDEAHGGYTFCATASLAILRSMDQINVEKLLEWSSARQLQEERGFCGRSNKLVDGCYSFWVGGSAAILEAFGYGQCFNKHALRDYILYCCQEKEQPGLRDKPGAHSDFYHTNYCLLGLAVAESSYSCTPNDSPHNIKCTPDRLIGSSKLTDVNPVYGLPIENVRKIIHYFKSNLSSPS
B3: Mrs6 (protein, UniProt P32864 1-603)
chain: MLSPERRPSMAERRPSFFSFTQNPSPLVVPHLAGIEDPLPATTPDKVDVLIAGTGMVESVLAAALAWQGSNVLHIDKNDYYGDTSATLTVDQIKRWVNEVNEGSVSCYKNAKLYVSTLIGSGKYSSRDFGIDLSPKILFAKSDLLSILIKSRVHQYLEFQSLSNFHTYENDCFEKLTNTKQEIFTDQNLPLMTKRNLMKFIKFVLNWEAQTEIWQPYAERTMSDFLGEKFKLEKPQVFELIFSIGLCYDLNVKVPEALQRIRRYLTSFDVYGPFPALCSKYGGPGELSQGFCRSAAVGGATYKLNEKLVSFNPTTKVATFQDGSKVEVSEKVIISPTQAPKDSKHVPQQQYQVHRLTCIVENPCTEWFNEGESAAMVVFPPGSLKSGNKEVVQAFILGAGSEICPEGTIVWYLSTTEQGPRAEMDIDAALEAMEMALLRESSSGLENDEEIVQLTGNGHTIVNSVKLGQSFKEYVPRERLQFLFKLYYTQYTSTPPFGVVNSSFFDVNQDLEKKYIPGASDNGVIYTTMPSAEISYDEVVTAAKVLYEKIVGSDDDFFDLDFEDEDEIQASGVANAEQFENAIDDDDDVNMEGSGEFVGEMEI
B4: Ypt51 (protein, UniProt P36017 1-210)
chain: MNTSVTSIKLVLLGEAAVGKSSIVLRFVSNDFAENKEPTIGAAFLTQRVTINEHTVKFEIWDTAGQERFASLAPMYYRNAQAALVVYDVTKPQSFIKARHWVKELHEQASKDIIIALVGNKIDMLQEGGERKVAREEGEKLAEEKGLLFFETSAKTGENVNDVFLGIGEKIPLKTAEEQNSASNERESNNQRVDLNAANDGTSANSACSC
B5: Bet4 (protein, UniProt Q00618 1-327)
chain: MHGIKRKQWTKELLRQKRVQDEKKIYDYRSLTENVLNMRDEKIYSIEALKKTSELLEKNPEFNAIWNYRRDIIASLASELEIPFWDKELVFVMMLLKDYPKVYWIWNHRLWVLKHYPTSSPKVWQTELAVVNKLLEQDARNYHGWHYRRIVVGNIESITNKSLDKEEFEYTTIKINNNISNYSAWHQRVQIISRMFQKGEVGNQKEYIRTEISYIINAMFTDAEDQSVWFYIKWFIKNDIVCKTLDEQEYLKMLKDLRENILLINNDEIEFSGKQNIWCLKILLVLEDILEEKEALTERSSEQYLVQLIDADPLRKNRYLHLLEQHK
B6: Ecm9 (protein, UniProt Q02202 1-377)
chain: MQSSLPLCREFFEKITAYLDYHDFRLTITANQPSITLPYYVDEKAHSIELIIFKTTFLSLFQEAHTYFNKTFSDQSGISNENIYYMTVGFLLTTPENKTVYNVHEDLLKRYFQDNSVLVIPDLLVKEVRLIQRLLCSSNNRINKSSSLWILYRKLFVLSLDANTLVLPDILFVFHSSGSQHFSNYYCWNTARWFYDNLPYNKRIELFNLTKRFCFQNVKDCSSWSALAYMVCQQEEKKTDNIRDFQRLTSSFNVPFKINKVDLNFQVQPADAFTQELVKWIDRTYAADWPPYLCLLQITKFNITLRIEMDSVLLTWRNEILNFEENSGHIKMINNTPIVPEKFSNDLLTSVNFAHFGYKKLFLNKFLDKNKKEQSDS

No constants are given. Whether binding was seen depends on the method and setting. Binding seen in cells or lysates may run through a third protein. These calls come from enrichment with a bait or labelling near it, and not all partners need be listed. For some of these results: No binding means not detected with the bait. Sequences can lack the tags named with a protein.

One experiment has as its target T1, Ecm9-FLAG (budding yeast (S. cerevisiae)) (UniProt Q02202).
T1 sequence: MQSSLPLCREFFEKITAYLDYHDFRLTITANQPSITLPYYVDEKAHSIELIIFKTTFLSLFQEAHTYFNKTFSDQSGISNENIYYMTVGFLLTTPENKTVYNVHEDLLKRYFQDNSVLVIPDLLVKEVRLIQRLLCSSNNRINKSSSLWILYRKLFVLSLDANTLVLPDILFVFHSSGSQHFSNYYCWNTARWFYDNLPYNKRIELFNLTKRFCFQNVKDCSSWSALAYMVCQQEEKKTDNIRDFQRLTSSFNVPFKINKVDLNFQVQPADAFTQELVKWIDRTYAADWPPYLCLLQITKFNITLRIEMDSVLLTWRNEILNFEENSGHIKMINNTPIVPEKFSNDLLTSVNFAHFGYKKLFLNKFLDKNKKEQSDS
Kind of experiment: affinity purification with mass spectrometry; anti-FLAG antibody on protein G magnetic beads; cytosolic fraction (200,000g) of yeast cells expressing Ecm9-FLAG or Bet2-FLAG or control cells; buffer B (50 mM HEPES-KOH pH 7.4, 100 mM NaCl, 5 mM MgCl2, 1 mM DTT); DIA LC-MS/MS.
Turning to B1, the binding result is “no binding”.

With B2, the binding entry is “no binding”.

Another experiment concerns the target T2, Bet2-FLAG (budding yeast (S. cerevisiae)) (UniProt P20133).
T2 sequence: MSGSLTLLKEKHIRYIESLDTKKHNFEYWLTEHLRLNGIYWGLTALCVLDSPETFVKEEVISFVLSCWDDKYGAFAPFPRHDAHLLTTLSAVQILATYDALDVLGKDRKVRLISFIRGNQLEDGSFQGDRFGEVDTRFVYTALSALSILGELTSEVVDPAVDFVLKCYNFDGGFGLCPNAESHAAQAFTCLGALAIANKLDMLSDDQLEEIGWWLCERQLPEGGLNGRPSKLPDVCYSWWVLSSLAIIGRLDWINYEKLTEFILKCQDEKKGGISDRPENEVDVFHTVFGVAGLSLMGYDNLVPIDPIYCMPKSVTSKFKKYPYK
The experiment is described as above.
Consider Ypt1 (from UniProt P01123 1-206), for which the binding entry is given as “binds”.

Consider B3, for which the binding result is “binds”.

Take B4: the binding entry is “binds”.

Consider B5, for which the binding entry is “binds”.

In the case of B6, the binding entry is “binds”.
